Test [1] has as its target human formyl peptide receptor 1 (hFPR1) (human) (UniProt P21462). Kind of test: co-IP; membrane proteins of HEK293 cells stably co-expressing hFPR1 or hFPRL1 with hRAGE or ΔRAGE, in dodecylmaltoside detergent buffer; precipitated with anti-human FPR1 or FPRL1 on protein G agarose overnight at 4°C; blotted for FPR1, FPRL1, RAGE.
Test [2] deals with human formyl-peptide-receptor-like-1 (hFPRL1) (human) (UniProt P25090). The test is described as above.
The target in test [3] is rat receptor for advanced glycation end products (RAGE) (rat (endogenous in primary astrocytes and microglia)) (UniProt Q63495). Kind of test: co-IP; RAGE precipitated from lysate of primary rat astrocytes or microglia; FPR1 and FPRL1 detected in the precipitates.
Test [4] addresses rat formyl-peptide-receptor-like-1 (FPRL1) (rat (endogenous in primary astrocytes and microglia)). Kind of test: co-IP; membrane proteins of primary rat astrocytes or microglia in dodecylmaltoside detergent buffer; precipitated with anti-FPR1 or anti-FPRL1 on protein G agarose overnight at 4°C; blotted for FPR1, FPRL1, RAGE.
Test [5] has as its target rat formyl peptide receptor 1 (FPR1) (rat (endogenous in primary astrocytes and microglia)) (UniProt D4A7Q2). The test is described as above.

By UniProt entry, the sequences of proteins in these tests, tags left out. Residues count along the entry.
UniProt P21462: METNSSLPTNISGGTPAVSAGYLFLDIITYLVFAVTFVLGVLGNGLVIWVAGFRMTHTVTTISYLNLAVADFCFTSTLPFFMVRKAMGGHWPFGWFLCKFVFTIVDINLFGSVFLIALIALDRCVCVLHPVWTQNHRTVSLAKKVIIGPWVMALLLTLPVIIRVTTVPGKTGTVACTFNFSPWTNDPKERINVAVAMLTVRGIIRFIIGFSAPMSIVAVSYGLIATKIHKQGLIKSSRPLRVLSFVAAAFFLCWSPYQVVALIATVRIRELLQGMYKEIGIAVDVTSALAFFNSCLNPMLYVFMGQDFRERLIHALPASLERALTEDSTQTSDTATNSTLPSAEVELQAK
UniProt P25090: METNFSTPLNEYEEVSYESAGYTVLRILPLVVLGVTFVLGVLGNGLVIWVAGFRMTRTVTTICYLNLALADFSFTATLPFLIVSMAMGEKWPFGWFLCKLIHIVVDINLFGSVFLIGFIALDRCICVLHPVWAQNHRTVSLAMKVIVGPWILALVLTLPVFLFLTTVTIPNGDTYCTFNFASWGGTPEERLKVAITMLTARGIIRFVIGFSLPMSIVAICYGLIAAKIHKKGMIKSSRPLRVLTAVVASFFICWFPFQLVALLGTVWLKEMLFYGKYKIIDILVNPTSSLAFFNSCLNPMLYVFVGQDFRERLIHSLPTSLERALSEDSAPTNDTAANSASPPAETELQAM
UniProt Q63495, residues 23-402: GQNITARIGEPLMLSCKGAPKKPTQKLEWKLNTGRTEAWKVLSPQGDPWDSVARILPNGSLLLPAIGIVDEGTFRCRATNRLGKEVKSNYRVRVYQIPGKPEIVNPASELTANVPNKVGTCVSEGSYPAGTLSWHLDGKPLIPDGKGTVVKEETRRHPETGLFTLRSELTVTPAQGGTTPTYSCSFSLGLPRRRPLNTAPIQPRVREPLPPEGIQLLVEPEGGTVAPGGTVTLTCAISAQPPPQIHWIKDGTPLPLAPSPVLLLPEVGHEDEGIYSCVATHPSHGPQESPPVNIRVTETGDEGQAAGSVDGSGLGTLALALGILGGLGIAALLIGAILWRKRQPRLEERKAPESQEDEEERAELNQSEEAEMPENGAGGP
UniProt D4A7Q2: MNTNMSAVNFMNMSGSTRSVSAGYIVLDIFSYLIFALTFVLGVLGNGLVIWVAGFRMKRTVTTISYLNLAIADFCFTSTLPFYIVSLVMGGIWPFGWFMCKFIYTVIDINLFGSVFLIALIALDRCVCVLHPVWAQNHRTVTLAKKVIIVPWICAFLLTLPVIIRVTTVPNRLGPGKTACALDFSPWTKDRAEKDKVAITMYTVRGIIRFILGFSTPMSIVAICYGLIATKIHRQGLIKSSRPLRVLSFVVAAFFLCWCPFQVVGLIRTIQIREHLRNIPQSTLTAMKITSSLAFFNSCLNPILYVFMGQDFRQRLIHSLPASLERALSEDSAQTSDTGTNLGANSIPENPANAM
UniProt Q15109, residues 23-404: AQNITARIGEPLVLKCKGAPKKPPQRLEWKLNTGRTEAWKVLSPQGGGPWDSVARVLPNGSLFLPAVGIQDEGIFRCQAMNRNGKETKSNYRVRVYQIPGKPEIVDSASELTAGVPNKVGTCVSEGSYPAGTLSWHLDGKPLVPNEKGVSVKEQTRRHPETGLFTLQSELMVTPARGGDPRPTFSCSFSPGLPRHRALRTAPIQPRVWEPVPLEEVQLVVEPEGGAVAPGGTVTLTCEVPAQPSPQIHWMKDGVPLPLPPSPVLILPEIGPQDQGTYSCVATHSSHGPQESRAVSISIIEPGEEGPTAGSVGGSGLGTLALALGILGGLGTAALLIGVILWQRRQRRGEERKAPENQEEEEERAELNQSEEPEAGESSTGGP
UniProt A0A8I6AM80: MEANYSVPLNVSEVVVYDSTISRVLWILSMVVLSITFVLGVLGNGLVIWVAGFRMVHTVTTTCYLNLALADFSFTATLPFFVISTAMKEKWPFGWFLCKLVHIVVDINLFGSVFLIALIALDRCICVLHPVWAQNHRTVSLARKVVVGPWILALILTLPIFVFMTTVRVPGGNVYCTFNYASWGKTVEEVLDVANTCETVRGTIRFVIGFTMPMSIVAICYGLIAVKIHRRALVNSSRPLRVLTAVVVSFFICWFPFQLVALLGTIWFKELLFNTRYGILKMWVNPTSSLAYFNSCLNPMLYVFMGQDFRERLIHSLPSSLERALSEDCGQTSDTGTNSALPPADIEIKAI

Results are given in words; binding and its absence hold for the method and conditions named. In cells and extracts the contact can be indirect. Some binding calls cover weakened binding; strength is not graded here.

As for “human receptor for advanced glycation end products (hRAGE) (from UniProt Q15109 23-404)”, the binding entry in test [1] and in test [2] was “binds” each time. With “rat formyl peptide receptor 1 (FPR1) (from UniProt D4A7Q2 1-355)”, the binding result in test [3] is “binds”. Consider “rat formyl-peptide-receptor-like-1 (FPRL1) (from UniProt A0A8I6AM80 1-351)”, for which the binding result in test [3] is listed as “binds”. Consider “rat receptor for advanced glycation end products (RAGE) (from UniProt Q63495 23-402)”, for which the binding result in test [4] and in test [5] was “binds” each time.

Source of the values: PMC3519738.
